Source: the supplement of paper PMC10849652
This is one part of the list.

The chains behind the UniProt entries cited, without tags or fusion partners. Where a name states a change or a piece, a line headed by the entry shows the natural chain unless it says otherwise.
UniProt Q5JQC4: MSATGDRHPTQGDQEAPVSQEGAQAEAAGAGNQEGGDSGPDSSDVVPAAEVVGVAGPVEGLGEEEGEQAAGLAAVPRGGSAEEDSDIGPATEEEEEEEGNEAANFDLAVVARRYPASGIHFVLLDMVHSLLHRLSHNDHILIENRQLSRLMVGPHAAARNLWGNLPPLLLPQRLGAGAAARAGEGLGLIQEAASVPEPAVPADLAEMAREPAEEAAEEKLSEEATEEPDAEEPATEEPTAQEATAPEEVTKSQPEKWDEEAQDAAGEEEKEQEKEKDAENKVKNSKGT
UniProt Q6UX04: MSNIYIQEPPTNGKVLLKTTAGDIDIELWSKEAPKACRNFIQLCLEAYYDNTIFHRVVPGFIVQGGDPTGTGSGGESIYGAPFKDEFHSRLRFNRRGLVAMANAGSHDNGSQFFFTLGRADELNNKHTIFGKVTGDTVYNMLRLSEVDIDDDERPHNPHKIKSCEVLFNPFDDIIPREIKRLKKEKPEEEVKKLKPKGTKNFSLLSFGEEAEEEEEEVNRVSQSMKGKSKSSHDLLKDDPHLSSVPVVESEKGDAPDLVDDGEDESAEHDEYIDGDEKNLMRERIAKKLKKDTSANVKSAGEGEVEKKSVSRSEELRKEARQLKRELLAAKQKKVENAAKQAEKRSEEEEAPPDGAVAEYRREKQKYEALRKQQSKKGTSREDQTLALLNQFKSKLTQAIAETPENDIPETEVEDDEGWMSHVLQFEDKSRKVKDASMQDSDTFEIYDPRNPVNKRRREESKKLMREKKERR
UniProt Q7L1T6: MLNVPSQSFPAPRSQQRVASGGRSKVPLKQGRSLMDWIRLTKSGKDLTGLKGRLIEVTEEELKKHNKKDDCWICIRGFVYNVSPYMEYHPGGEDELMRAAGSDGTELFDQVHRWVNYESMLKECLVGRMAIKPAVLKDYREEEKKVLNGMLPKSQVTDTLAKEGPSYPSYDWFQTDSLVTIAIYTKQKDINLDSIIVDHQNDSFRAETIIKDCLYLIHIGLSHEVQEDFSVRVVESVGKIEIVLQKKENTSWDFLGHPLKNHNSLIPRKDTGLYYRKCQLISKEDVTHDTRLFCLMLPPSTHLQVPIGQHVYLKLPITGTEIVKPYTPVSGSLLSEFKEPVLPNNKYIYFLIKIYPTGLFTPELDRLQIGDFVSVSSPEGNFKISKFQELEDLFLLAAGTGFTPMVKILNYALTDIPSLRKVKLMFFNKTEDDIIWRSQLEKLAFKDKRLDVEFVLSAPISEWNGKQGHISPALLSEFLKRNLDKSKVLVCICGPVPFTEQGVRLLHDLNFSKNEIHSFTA
UniProt P61962: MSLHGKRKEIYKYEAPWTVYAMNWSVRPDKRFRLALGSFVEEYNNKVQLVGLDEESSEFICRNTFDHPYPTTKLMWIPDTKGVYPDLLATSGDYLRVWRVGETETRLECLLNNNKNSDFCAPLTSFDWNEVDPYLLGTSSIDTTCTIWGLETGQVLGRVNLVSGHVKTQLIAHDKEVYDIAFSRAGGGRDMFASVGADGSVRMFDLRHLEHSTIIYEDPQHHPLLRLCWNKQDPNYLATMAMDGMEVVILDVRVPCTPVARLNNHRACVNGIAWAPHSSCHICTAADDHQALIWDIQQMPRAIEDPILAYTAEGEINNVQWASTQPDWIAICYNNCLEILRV
UniProt P0DMU9: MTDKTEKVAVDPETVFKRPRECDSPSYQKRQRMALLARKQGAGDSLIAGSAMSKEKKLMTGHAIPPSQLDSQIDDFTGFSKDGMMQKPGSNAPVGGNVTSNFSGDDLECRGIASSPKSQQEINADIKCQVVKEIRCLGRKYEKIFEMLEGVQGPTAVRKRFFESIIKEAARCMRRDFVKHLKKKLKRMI
UniProt P17812: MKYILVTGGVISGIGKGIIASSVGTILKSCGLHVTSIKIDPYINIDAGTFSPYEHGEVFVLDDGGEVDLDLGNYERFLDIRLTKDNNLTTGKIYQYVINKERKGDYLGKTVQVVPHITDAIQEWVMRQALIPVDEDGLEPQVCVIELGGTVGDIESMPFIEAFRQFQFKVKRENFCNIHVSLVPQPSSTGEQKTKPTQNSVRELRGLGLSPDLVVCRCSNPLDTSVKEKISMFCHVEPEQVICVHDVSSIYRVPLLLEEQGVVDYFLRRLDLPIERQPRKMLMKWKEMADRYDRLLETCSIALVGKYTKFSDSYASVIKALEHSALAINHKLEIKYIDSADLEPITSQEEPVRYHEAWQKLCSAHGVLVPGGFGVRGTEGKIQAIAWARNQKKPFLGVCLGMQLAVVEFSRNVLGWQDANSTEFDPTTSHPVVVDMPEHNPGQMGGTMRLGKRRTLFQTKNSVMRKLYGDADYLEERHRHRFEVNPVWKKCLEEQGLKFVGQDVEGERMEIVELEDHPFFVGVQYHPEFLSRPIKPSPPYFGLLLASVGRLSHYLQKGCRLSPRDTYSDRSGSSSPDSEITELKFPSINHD
UniProt P32929, whole entry, looked up: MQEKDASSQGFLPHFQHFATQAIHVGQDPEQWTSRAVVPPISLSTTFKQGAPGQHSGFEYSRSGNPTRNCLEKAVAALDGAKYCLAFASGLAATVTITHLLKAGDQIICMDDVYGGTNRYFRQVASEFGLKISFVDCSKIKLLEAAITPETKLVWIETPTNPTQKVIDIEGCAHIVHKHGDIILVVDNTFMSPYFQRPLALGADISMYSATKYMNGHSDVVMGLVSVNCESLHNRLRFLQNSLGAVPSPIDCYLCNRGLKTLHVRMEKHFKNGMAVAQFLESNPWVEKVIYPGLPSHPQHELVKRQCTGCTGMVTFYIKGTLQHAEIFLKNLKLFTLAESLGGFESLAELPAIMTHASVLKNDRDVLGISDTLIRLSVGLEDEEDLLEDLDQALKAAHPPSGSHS
UniProt P26232: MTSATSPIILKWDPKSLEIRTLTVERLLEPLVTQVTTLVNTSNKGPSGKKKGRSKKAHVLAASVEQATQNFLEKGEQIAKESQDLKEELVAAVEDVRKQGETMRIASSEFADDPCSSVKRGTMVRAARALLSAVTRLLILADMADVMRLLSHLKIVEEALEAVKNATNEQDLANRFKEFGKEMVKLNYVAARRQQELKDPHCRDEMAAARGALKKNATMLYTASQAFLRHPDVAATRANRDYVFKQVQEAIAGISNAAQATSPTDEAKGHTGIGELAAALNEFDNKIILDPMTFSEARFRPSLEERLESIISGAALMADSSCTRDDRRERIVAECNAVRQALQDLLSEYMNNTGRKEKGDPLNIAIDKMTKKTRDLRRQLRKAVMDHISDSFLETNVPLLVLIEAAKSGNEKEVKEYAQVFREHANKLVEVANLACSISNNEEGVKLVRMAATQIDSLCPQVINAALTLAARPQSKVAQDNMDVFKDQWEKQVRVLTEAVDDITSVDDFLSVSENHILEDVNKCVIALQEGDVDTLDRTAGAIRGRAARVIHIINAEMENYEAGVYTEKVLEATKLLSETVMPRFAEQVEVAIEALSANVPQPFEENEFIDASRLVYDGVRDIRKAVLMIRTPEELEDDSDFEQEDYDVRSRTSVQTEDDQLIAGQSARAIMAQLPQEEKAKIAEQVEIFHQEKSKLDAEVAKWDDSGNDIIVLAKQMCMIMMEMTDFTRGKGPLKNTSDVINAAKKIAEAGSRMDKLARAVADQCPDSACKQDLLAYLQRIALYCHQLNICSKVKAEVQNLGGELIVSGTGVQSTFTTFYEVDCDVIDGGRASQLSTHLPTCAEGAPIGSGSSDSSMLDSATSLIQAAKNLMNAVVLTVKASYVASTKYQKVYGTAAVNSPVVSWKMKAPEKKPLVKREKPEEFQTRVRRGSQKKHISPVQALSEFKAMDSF
UniProt P07711: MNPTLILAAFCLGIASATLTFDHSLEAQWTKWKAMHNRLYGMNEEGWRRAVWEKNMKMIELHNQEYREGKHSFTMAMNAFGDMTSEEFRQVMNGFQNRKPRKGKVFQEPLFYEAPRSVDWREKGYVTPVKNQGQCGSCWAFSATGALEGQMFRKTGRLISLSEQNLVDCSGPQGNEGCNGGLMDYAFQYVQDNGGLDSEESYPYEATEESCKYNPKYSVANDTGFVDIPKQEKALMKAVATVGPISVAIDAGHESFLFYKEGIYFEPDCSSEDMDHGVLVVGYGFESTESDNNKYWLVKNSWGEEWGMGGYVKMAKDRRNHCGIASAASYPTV
UniProt O60888: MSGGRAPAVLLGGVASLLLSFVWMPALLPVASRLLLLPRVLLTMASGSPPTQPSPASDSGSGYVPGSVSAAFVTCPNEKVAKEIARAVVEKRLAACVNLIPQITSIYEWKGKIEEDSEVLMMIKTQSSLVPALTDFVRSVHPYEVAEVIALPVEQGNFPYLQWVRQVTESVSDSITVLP
UniProt Q13618, whole entry, looked up: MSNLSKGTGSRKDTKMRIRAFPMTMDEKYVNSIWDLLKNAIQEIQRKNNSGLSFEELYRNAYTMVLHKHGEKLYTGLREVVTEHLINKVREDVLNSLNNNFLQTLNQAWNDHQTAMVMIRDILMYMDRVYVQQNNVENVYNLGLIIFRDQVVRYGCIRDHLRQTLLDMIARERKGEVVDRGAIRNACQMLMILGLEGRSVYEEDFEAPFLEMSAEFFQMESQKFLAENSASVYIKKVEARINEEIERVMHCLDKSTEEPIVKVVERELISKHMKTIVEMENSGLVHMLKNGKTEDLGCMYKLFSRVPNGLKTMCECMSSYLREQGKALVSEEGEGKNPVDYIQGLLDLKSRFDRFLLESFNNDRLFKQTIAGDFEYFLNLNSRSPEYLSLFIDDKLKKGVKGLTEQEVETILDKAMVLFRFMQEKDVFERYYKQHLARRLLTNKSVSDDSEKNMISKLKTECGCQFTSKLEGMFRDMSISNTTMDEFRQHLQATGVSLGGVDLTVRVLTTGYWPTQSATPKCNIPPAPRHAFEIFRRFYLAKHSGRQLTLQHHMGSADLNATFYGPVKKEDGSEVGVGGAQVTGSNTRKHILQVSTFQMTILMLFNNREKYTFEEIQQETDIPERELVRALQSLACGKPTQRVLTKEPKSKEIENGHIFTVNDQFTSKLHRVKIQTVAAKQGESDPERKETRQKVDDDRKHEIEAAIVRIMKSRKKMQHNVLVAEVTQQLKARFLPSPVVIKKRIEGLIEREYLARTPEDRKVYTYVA
UniProt P01034: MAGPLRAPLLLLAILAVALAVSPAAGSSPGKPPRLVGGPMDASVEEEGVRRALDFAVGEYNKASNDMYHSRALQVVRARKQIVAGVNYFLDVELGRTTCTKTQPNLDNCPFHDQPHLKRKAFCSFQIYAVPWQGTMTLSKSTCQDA
UniProt Q14118: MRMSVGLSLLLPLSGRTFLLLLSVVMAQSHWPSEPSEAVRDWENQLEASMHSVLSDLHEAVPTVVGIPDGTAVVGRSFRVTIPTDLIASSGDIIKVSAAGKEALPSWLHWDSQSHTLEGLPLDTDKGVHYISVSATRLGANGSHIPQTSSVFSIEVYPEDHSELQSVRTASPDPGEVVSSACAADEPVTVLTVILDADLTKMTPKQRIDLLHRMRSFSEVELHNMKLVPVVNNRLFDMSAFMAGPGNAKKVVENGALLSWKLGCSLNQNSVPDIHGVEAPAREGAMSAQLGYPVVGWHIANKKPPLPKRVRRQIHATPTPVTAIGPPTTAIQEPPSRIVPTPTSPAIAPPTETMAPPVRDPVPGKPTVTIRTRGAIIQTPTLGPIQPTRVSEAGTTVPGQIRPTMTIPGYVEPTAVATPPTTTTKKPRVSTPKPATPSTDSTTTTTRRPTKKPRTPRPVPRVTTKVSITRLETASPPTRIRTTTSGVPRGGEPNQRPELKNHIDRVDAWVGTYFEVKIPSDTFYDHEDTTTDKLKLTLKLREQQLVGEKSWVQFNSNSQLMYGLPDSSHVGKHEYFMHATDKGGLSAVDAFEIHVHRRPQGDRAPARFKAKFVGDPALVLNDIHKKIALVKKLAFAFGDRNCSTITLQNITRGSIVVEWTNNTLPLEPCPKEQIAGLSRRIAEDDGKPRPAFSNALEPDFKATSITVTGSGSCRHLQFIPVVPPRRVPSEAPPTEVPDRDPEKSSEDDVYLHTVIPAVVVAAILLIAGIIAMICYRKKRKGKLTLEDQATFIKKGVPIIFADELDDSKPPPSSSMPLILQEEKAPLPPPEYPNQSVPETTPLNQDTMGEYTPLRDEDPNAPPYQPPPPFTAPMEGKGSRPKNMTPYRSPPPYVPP
UniProt O60911: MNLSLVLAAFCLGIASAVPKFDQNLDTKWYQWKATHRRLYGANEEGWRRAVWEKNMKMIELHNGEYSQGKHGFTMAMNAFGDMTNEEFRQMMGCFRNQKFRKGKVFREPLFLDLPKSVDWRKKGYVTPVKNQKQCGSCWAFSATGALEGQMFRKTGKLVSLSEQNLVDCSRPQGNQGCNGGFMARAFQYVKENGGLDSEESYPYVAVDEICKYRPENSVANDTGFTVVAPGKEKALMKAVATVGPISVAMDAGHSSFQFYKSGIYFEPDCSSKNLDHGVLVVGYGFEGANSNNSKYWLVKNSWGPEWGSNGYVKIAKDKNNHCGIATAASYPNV

Compound: CN1CCC(CNc2ccc3ncc(-c4cccc(OC(F)(F)F)c4)n3n2)CC1
Test: log2 fold change, soluble protein after heating vs DMSO (PISA); higher = thermal stabilisation; K562 cells, 10 uM, 30 min; active = over 0.2 and 3.5 SD of the protein, either way, in both replicates (recomputed)
Method in brief: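 K562 cells at 2×10^6 cells/mL were treated with 10 μM compound for 30 min. Aliquots were heated for 3 min across 48°C-58°C, pooled, and extracted in PBS with 0.5% NP-40 at 4°C; soluble protein was the supernatant after 21,000xg for 90 min. Soluble protein was quantified by TMTpro 16plex LC-MS/MS with channel sums equalised, and reported as log2 fold change in thermal stability against DMSO controls, with values from duplicates.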

Row | Target | log2 fold change
1 | CT47A1 (UniProt Q5JQC4) | inactive: 0.015
2 | CWC27 (UniProt Q6UX04) | inactive: -0.091
3 | CYB5B, A0A499FJ32 | inactive: 0.1
4 | CUX1 isoform 2 (UniProt Q13948) | inactive: 0.055
5 | CYB5R4 (UniProt Q7L1T6) | inactive: -0.061
6 | CYHR1 (UniProt E9PJD7) | inactive: 0.002
7 | DCAF7 (UniProt P61962) | inactive: 0.011
8 | CT45A10 (UniProt P0DMU9) | inactive: 0.135
9 | CTPS1 (UniProt P17812) | inactive: -0.071
10 | CTH (UniProt P32929) | inactive: 0.029
11 | CTNNA2 (UniProt P26232) | inactive: -0.013
12 | CUL1 (UniProt Q13616) | inactive: -0.017
13 | CTSL (UniProt P07711) | inactive: -0.306
14 | CTNNB1 (UniProt P35222) | inactive: 0.379
15 | CYB5R3 isoform 3 (UniProt P00387) | inactive: 0.044
16 | CUTA isoform 2 (UniProt O60888) | inactive: -0.027
17 | CTIF isoform 2 (UniProt O43310) | inactive: 0.098
18 | CUL3 (UniProt Q13618) | inactive: 0.029
19 | CUL2 isoform 2 (UniProt Q13617) | inactive: -0.065
20 | CST3 (UniProt P01034) | inactive: 0.037
21 | DAG1 (UniProt Q14118) | active: 0.243
22 | D2HGDH (UniProt Q8N465) | inactive: -0.087
23 | CTSV (UniProt O60911) | active: -1.29

Copied from above: nos. 9 to 13
Row | Target | log2 fold change
9 | CTPS1 (UniProt P17812) | inactive: -0.071
10 | CTH (UniProt P32929) | inactive: 0.029
11 | CTNNA2 (UniProt P26232) | inactive: -0.013
12 | CUL1 (UniProt Q13616) | inactive: -0.017
13 | CTSL (UniProt P07711) | inactive: -0.306
